Test results: patent publication US20250145696A1 (BIOVERATIV USA, published 2025)
These are yes or no findings as the source states them, for the method shown. Some binding calls cover weakened binding; strength is not graded here.

Molecular target: T1, human C1s (human, UniProt P09871 16-688)
T1 sequence: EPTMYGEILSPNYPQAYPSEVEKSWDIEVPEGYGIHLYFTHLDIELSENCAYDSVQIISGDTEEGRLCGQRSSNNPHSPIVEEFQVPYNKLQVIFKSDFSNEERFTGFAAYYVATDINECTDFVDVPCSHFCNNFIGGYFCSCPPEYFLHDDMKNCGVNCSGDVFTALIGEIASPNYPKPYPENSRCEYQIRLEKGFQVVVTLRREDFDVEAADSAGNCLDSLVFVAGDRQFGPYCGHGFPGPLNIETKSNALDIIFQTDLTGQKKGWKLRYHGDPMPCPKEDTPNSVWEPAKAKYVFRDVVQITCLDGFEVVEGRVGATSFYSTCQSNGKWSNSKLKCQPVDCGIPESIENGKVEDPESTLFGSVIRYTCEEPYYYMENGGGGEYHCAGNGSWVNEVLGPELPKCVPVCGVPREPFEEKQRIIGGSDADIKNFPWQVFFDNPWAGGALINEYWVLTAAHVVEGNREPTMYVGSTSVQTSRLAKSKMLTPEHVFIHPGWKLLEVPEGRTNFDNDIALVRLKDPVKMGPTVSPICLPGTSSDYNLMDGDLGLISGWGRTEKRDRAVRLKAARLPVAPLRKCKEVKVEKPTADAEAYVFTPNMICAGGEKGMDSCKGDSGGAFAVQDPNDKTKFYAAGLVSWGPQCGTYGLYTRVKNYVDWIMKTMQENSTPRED
Experiment: direct binding ELISA for serum BIVV009: C1s-coated plates, goat anti-human HRP secondary antibody, TMB

binding: binds
B1: BIVV009 (antibody, human IgG4 S228P, kappa, V domains shown)
VH: EVQLVESGGGLVKPGGSLRLSCAASGFTFSNYAMSWVRQAPGKGLEWVATISSGGSHTYYLDSVKGRFTISRDNSKNTLYLQMNSLRAEDTALYYCARLFTGYAMDYWGQGTLVTVSS
VL: QIVLTQSPATLSLSPGERATMSCTASSSVSSSYLHWYQQKPGKAPKLWIYSTSNLASGVPSRFSGSGSGTDYTLTISSLQPEDFATYYCHQYYRLPPITFGQGTKLEIKR
